Literature values as cited in US20160244435A1, “EXPANDED THERAPEUTIC POTENTIAL IN NITROHETEROARYL ANTIMICROBIALS” (The Regents of the University of California, priority 2013, published 2016).
Some of these results come from one statement about several compounds together.

System: Giardia
Conditions: single 2 g oral dose; cited from earlier work

Compound	efficacy
Cc1ncc([N+](=O)[O-])n1CC(O)CCl (centres unmarked) [ornidazole]	85-90%
CCS(=O)(=O)CCn1c([N+](=O)[O-])cnc1C [tinidazole]	85-90%
